Experimental data published in patent US20110206638A1, “COMPOSITIONS AND METHODS FOR REDUCING THE MUTATION RATE OF VIRUSES” (priority 2010, published 2011).
Some results were stated once for a whole list of compounds, not compound by compound. For at least one compound, name, drawing or mass did not settle the structure.

Test system: subgenomic HCV replicon of genotype 1b (Con1S1179I), NS5A region
Experiment: NS5A sequencing of HCV RNA, nucleotide and amino acid substitution rates in Con1 replicon cells (Example 2)
Format: cell-based, Hepatitis C virus
Details: within 48 hrs
Procedure: Huh7 cell clones (SgPC2 cells) supporting continuous replication of a subgenomic HCV replicon of genotype 1b (Con1S1179I sequence) were used (Choi J. et al. (2004) Hepatology 39:81-89; Blight K J et al. (2000) Science 290:1972). Subgenomic replicons support the HCV RNA genome replication by the viral replicase but no virus is formed. The in vitro transcription, transfection of the viral RNA, and Huh7 human hepatoma cell culture were performed as described (Choi J. et al. (2004) Hepatology 39:81-89; Blight K J et al. (2000) Science 290:1972). All biochemicals including ethanol (molecular biology grade), acetaldehyde, BSO, H2O2, dipyridal, and GSH ethyl ester were obtained from SigmaAldrich except PIH, which was synthesized according to published methods (Kicic A et al., (2001) Cancer 92: 3093-3110; Ponka P. et al., (1979) FEBS Lett 97: 317-321).
Total RNAs were collected using Trizol (Invitrogen). Then, the NS5A region (nt. 4612 to 6013 of Con1 replicon) was reverse transcribed/amplified with AccuScript High Fidelity RT-PCR System (Agilent). The reverse primer used for reverse transcription and PCR amplification was 5′-[…]-3′ (SEQ ID NO: 1), and the forward primer was 5′-[…]-3′ (SEQ ID NO: 2). […] The do/ds ratio was calculated using SNAP. Amino acid substitution trends were analyzed by position with MutationCounter, a mutation counting program, developed for this project. […]

CCCCS(=N)(=O)CCC(N)C(=O)O [BSO, L-buthionine-S,R-sulfoximine] was tested. Which “nucleotide and amino acid substitution rates of HCV RNA elevated” value did it give?
The value was 4-18 folds.
